Some of the results follow. Further columns of the screen follow, without active or inactive calls. Most of these compounds were active or inconclusive in the main read-out, so they are no random draw. The note in brackets gives the kind of curve behind each potency; many fits are weak.
Experiment: qHTS Assay for Lipid Storage Modulators in Drosophila S3 Cells;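 as to cell number change: cells counted by Cell Tracker Red CMTPX staining in the red channel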
Details: BODIPY lipid droplet fluorescence, 18-24 h; for cell number change: measured here: cell count max response, cells fed with added oleic acid
Outline: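 Laser-scanning cytometry quantifies lipid droplet accumulation (500–530 nm total intensity; droplet/cell object ratio) in oleic acid-fed (400 uM added) Drosophila S3 cells treated with a concentration series. 20 uM Triacsin C defined 100% inhibition.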

[1] = measured here: lipid fluorescence (Fed channel) AC50, cells fed with added oleic acid
[2] = measured here: cell number channel AC50, cells fed with added oleic acid

| SMILES | cell number change [%] | AC50 [1] | AC50 [2] |
| --- | --- | --- | --- |
| COc1cccc(NC(=O)C2CCCN2C(=O)Nc2ccccc2)c1 (stereo not given) | 3.36 | 6.51 µM [rising, single point] |  |
| CC(=O)O[C@H]1CC[C@H]2[C@@H]3CCc4cc(O)ccc4[C@H]3CC[C@]12C | -52.2 | 20.6 µM [falling, single point] | 10.3 µM [falling, partial curve] |
| COc1cc(CCNc2ccc3nnc(-c4ccccc4)n3n2)cc(OC)c1OC | 8.11 | 1.46 µM [rising, partial curve] |  |
| Cc1noc(C)c1S(=O)(=O)NC1CCN(Cc2ccccc2)CC1 | 28.6 | 6.51 µM [rising, partial curve] |  |
| O=C(O)c1ccc(N/N=C/c2ccc(OC(=O)c3ccccc3Cl)cc2)cc1 | 12.2 |  |  |
| CC1NC(=O)NC1CCCCCC(=O)Nc1ccc(F)c(Cl)c1 (stereo not given) | 56.4 |  | 18.4 µM [rising, single point] |
| Cc1occc1C(=O)N1CCCC(N2CCN(c3ccccc3F)CC2)C1 (stereo not given) | 17.3 | 29.1 µM [rising, single point] |  |
| COc1ccc(N2C3=[N+](CC2(C)O)c2ccccc2CC3)cc1 (stereo not given) | 4.49 | 18.4 µM [rising, single point] |  |
| O=C(CN1CCN(C(=O)CCC(=O)N2CCC(c3ccccc3)=N2)CC1)Nc1ccc(F)cc1 | -8.35 | 20.6 µM [rising, single point] |  |
| Oc1c(/C=N/c2ncn[nH]2)ccc2ccccc12 | -0.558 |  |  |
| CC(C)(C)c1ccc(OCC(=O)N2CCCCCC2)c(Br)c1 | 27.4 | 2.06 µM [falling, partial curve] |  |
| O=C(Nc1nc(NC(=O)c2ccco2)n(-c2ccccc2)n1)c1ccccc1 | -109 | 23.1 µM [falling, single point] | 16.4 µM [falling, partial curve] |
| Cc1cc(C)n(-c2nc3sc4c(c3c(=O)[nH]2)CCCC4)n1 | -3.48 | 0.13 µM [falling, full curve, poor fit] |  |
| O=C(Cn1ncc(Cl)c(Cl)c1=O)N1CCOCC1 | -7.37 |  |  |
| CCc1ccc(NC(=S)NC(=O)c2c(-c3ccccc3Cl)noc2C)cc1 | 23.4 | 6.51 µM [rising, full curve] |  |
| CC(=O)c1ccc(NS(=O)(=O)c2ccc(C)cc2)cc1 | 37 |  | 7.31 µM [rising, partial curve] |
| CC(=O)N(c1ccc2oc(=O)sc2c1)S(=O)(=O)c1cccc2cccnc12 | 28.2 | 0.13 µM [rising, partial curve, poor fit] |  |
| Fc1ccc(-c2nnc(CN3CCN(c4ncc(C(F)(F)F)cc4Cl)CC3)o2)cc1 |  |  | 0.651 µM [falling, single point] |
| COc1ccc(/C=C2\SC(=S)N(CCCC(=O)Nc3ccccn3)C2=O)cc1OC |  | 1.84 µM [rising, partial curve] |  |
| O=C(CCc1ccccc1)N=C1SC2CS(=O)(=O)CC2N1Cc1ccc(F)cc1 (stereo not given) | 13.4 |  |  |

| SMILES | cell number change [%] | AC50 [1] | AC50 [2] |
| --- | --- | --- | --- |
| CCC(=O)c1ccc(OCC(O)Cn2nc(C)cc2C)cc1 (stereo not given) | -4.01 |  |  |
| O/N=C1/CCSc2ccccc21 | -0.293 | 0.58 µM [falling, single point] |  |
| Oc1ccc(-c2nnc(-c3ccccc3)c(-c3ccccc3)n2)cc1 | -62.5 | 8.2 µM [falling, partial curve] | 9.2 µM [falling, partial curve] |
| O=C(NC1CCCC1)C1CC1c1ccccc1 (stereo not given) | 14.1 |  |  |
| CCOc1ccc(N2CC(C(=O)Nc3ccc(OC)c(S(=O)(=O)N4CCCCC4)c3)CC2=O)cc1 (stereo not given) |  | 0.58 µM [rising, single point] |  |
| COc1ccc(Cl)cc1NC(=O)c1oc(C)nc1C |  | 0.58 µM [rising, single point] | 0.326 µM [rising, full curve] |
| CN(C)/N=C/c1ccc(OS(=O)(=O)c2ccccc2)cc1 | 17.2 | 23.1 µM [rising, partial curve] |  |
| CCOC(=O)N1CCC(NC(=O)Cn2cccc2C(=O)c2ccccc2C)CC1 | -1.91 |  |  |
| O=C(O)C1CC(=O)N(CCc2c[nH]c3ccccc23)C1 (stereo not given) | -4.14 | 0.146 µM [falling, full curve, poor fit] |  |
| O=S(=O)(c1ccc2c(c1)CCCN2)N1CCCC2CCCCC21 (stereo not given) | -7.23 | 0.231 µM [falling, full curve, poor fit] |  |
| O=C(Nc1ccc(O)cc1)c1ccccc1OCc1ccccc1 | -31 |  | 16.4 µM [falling, single point] |
| O=C(Nc1cccc(-n2cnnn2)c1)c1cccnc1 | 12.8 |  |  |
| COc1ccccc1-n1c(CNC(=O)c2ccco2)nnc1SCC(=O)Nc1cc(C)ccc1C | -0.575 | 6.51 µM [rising, single point] |  |
| COc1cccc(/C=N/n2cnnc2)c1OCc1ccccc1 | 56.5 |  | 29.1 µM [rising, single point] |
| CNC(=O)c1ccc(CNC(=O)OCC(F)(F)F)cc1 | -14 | 6.51 µM [rising, single point] |  |
| C[C@H](NC(=O)c1ccco1)C(=O)Nc1ccc(S(=O)(=O)N2CCCC2)cc1 | -14.3 | 0.92 µM [falling, full curve] | 0.731 µM [falling, full curve, poor fit] |
| CCCC(=O)N(C1CC(C)C(C#N)(C#N)C1(C#N)C#N)N(C)C (stereo not given) | -64.9 | 4.11 µM [falling, full curve] | 5.17 µM [falling, partial curve] |
| Cc1cc(C)nc(SCc2cnc(C)nc2N)n1 |  | 6.51 µM [falling, single point] | 6.51 µM [falling, single point] |
| c1ccc(-c2cc3c(N4CCOCC4)ncnc3s2)cc1 | -17.4 | 0.00517 µM [falling, full curve, poor fit] |  |
| COc1ccc2nc(SCC(=O)Nc3cc(C)on3)c(C#N)cc2c1 | 20.5 | 29.1 µM [rising, partial curve, poor fit] | 6.51 µM [rising, single point] |

Only AC50 [2] and cell number change [%], for 2 of the compounds above:
SMILES,AC50 [2],cell number change [%]
O=S(=O)(c1ccc2c(c1)CCCN2)N1CCCC2CCCCC21 (stereo not given),,-7.23
O=C(Nc1cccc(-n2cnnn2)c1)c1cccnc1,,12.8

From PubChem BioAssay AID2685 (National Center for Advancing Translational Sciences (NCATS), 2010)
